The values that follow come from PubChem BioAssay AID720641 (ICCB-Longwood Screening Facility, Harvard Medical School, 2013).

The list shows a part of the results.

The nature of this test: S. aureus growth inhibition at 42 and 30 °C, primary screen, LtaS inhibitor project, RN4220, two temperatures (AID 720641). The settings on record: OD600, 20 h, 42 °C, measured here: growth at 30 °C, stronger effect = lower value.
As for `CN(C)C1(CNC(=O)c2ccc(C(C)(C)C)cc2)CCCCC1`, the relative growth came out at 84.1%. Turning to `CC1CN(Cc2ccccc2)CCC1=O` (configuration not stated), the relative growth was 84.3%. As to `CCN1CCC(Nc2ccc(F)cc2)CC1`, the relative growth was 111%.

As to `CC1CN(C)C(C)CC1Nc1ccccc1` (configuration not stated), the relative growth came out at 75.6%. `Cc1ccccc1C(=O)NCC1(N(C)C)CCCCC1`: the relative growth is 89%. The figure for `CC1CN(CCc2ccccc2)C(C)CC1=O` (configuration not stated) is 85.5%; for `CN(C)c1ccc(C(=O)NCC2(N3CCCCC3)CCCCC2)cc1` it is 97.7%. `CC(C)(C)c1ccc(C(=O)NCC2(N3CCOCC3)CCCCC2)cc1` had a relative growth of 95.7%. Compound `CCOc1ncccc1C(=O)NCC1(N(C)C)CCCCC1` returned a relative growth of 92.3%. Compound `COc1cc(C(=O)NCC2(N3CCOCC3)CCCCC2)cc(OC)c1OC` came in with a relative growth of 90.9%. Take `O=C(NCC1(N2CCCCC2)CCCCC1)c1n[nH]c2ccccc12`: the relative growth came out at 85.1%. As to `CCOc1ncccc1C(=O)NCC1(N2CCCCC2)CCCCC1`, the relative growth came out at 92.2%. As for `NC(=O)C1(Nc2ccccc2)CCN(Cc2ccccc2)CC1`, the relative growth stood at 85.1%. The value for `O=C1CCN(CCc2ccccc2)CC1` was 85.6%. Compound `CN1CCC(Nc2ccc(F)cc2)CC1` displayed a relative growth of 112%. Compound `O=C(NCC1(N2CCOCC2)CCCCC1)c1ccccc1[N+](=O)[O-]` displayed a relative growth of 92.6%. `O=C(NCC1(N2CCOCC2)CCCCC1)c1ccc([N+](=O)[O-])cc1` gave a relative growth of 94.2%.

As for `O=C(NCC1(N2CCOCC2)CCCCC1)c1cc2ccccc2cc1O`, the relative growth was 79.8%. `O=C(NCC1(N2CCOCC2)CCCCC1)c1ccccc1`: the relative growth amounted to 90.5%.

Compound `CCCN1CCC(Nc2cc(OC)cc(OC)c2)CC1` returned a relative growth of 91.2%. As for `Cc1c(C(=O)NCC2(N3CCOCC3)CCCCC2)oc2c(Cl)cccc12`, the relative growth worked out at 90.1%. The figure for `Cn1nc(C(=O)NCC2(N3CCCCC3)CCCCC2)c2ccccc2c1=O` is 90.8%; for `CC(C)(C)OC(=O)N1CCC(Nc2ccc(OC(F)(F)F)cc2)CC1` it is 90.7%; for `CCOc1ccc(C(=O)NCC2(N3CCOCC3)CCCCC2)cc1` it is 93.6%. For the compound `CCCOc1cccc(C(=O)NCC2(N3CCOCC3)CCCCC2)c1`, the relative growth worked out at 93.9%. Regarding `FC(F)(F)Oc1ccc(NC2CCNCC2)cc1`, the relative growth came to 99%. The compound `NC(=O)C1(Nc2ccc(F)cc2)CCNCC1` gave a relative growth of 81.2%. Compound `c1ccc(CN2CCC(Nc3ccc4c(c3)OCO4)CC2)cc1` displayed a relative growth of 77%. `O=C(NCC1(N2CCOCC2)CCCCC1)c1ccccc1Br` gave a relative growth of 100%.

The compound `Cc1ccc(C(=O)NCC2(N(C)C)CCCCC2)o1` came in with a relative growth of 96.2%. As for `CCCCOc1ccccc1C(=O)NCC1(N2CCOCC2)CCCCC1`, the relative growth was determined as 81.9%. `CCCN1CCC(Nc2ccc(OC)c(OC)c2)CC1` registered a relative growth of 79.6%.

`COc1ccc(C(=O)NCC2(N3CCCCC3)CCCCC2)cc1` registered a relative growth of 89%. In the case of `Cc1ccccc1NC1CC(C)(C)NC(C)(C)C1`, the relative growth amounted to 85.5%.

In the case of `CC1CN(CCc2ccccc2)CCC1=O` (configuration not stated), the relative growth came out at 89.2%.

`N#CC1(Nc2ccccc2)CCN(Cc2ccccc2)CC1` returned a relative growth of 90.7%.

Turning to `O=C1CCN(Cc2ccccc2)CC1`, the relative growth is 102%. `O=C(NCC1(N2CCOCC2)CCCCC1)c1ccc2nc[nH]c2c1` yielded a relative growth of 92.5%. `O=C(NCC1(N2CCOCC2)CCCCC1)c1ccc(Cl)cc1` registered a relative growth of 100%. With `COc1ccccc1C(=O)NCC1(N2CCOCC2)CCCCC1`, the relative growth turned out to be 89.2%. Take `CCOC(=O)N1CCC(Nc2ccc(F)cc2)CC1`: the relative growth was found to be 111%. `CCOC(=O)N1CCC(Nc2cccc(C)c2)CC1` gave a relative growth of 104%.
